This is an account of results in PMC10285036.

Sequences of proteins named here, by UniProt entry; tags and fusion partners are left off.
UniProt Q96P20: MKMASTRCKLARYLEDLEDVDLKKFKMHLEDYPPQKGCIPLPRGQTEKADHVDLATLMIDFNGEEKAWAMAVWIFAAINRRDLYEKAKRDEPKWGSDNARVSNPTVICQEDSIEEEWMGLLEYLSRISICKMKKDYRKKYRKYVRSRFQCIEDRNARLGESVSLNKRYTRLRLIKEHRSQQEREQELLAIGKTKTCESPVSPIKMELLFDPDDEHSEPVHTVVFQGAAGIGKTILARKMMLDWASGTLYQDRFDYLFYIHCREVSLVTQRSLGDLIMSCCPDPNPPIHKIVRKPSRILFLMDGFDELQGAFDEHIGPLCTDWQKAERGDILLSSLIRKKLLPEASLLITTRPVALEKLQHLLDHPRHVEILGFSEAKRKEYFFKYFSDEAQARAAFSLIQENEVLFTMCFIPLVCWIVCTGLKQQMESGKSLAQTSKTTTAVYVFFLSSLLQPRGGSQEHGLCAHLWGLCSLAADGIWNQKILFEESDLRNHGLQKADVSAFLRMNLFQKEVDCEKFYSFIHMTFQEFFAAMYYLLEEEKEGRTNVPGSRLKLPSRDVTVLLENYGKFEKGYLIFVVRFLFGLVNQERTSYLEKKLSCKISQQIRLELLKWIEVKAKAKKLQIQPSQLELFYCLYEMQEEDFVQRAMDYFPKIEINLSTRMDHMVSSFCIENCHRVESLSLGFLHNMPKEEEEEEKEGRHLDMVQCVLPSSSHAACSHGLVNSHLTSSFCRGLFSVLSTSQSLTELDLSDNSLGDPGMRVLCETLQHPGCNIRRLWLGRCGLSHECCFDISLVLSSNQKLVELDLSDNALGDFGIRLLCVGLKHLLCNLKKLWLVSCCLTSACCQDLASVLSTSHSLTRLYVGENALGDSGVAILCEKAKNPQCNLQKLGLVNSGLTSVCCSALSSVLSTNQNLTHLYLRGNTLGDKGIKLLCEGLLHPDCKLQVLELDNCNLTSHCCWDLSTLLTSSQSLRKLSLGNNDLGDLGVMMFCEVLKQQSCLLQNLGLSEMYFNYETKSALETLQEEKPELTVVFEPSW
UniProt P46736: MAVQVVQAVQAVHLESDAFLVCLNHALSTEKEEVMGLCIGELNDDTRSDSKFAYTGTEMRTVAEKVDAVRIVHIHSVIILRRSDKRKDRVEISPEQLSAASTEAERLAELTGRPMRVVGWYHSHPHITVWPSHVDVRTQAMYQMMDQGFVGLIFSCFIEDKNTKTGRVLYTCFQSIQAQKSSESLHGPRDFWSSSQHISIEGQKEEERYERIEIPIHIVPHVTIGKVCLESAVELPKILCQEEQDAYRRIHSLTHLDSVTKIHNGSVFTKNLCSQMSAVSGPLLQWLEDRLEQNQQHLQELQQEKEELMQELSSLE

This assay has as its target NOD-like receptor family pyrin domain containing 3 (NLRP3) (human (endogenous in HBE)) (UniProt Q96P20). The experiment in a line: co-IP; lysates of HBE-N cells, treated with or without VD3, immunoprecipitated with anti-NLRP3 antibody or anti-rabbit IgG and immunoblotted for VDR and BRCC3. (In western blotting, separated proteins are transferred to a membrane and probed.)

These are yes or no findings as the source states them, for the method shown. Binding seen in cells or lysates may run through a third protein. Some binding calls cover weakened binding; strength is not graded here.

For “BRCA1/BRCA2-containing complex subunit 3 (BRCC3) (from UniProt P46736 1-316) (enzyme)”, the binding entry is on record as “binds”.

B1: vitamin D receptor (VDR) (protein, UniProt P11473 1-427)
chain: MEAMAASTSLPDPGDFDRNVPRICGVCGDRATGFHFNAMTCEGCKGFFRRSMKRKALFTCPFNGDCRITKDNRRHCQACRLKRCVDIGMMKEFILTDEEVQRKREMILKRKEEEALKDSLRPKLSEEQQRIIAILLDAHHKTYDPTYSDFCQFRPPVRVNDGGGSHPSRPNSRHTPSFSGDSSSSCSDHCITSSDMMDSSSFSNLDLSEEDSDDPSVTLELSQLSMLPHLADLVSYSIQKVIGFAKMIPGFRDLTSEDQIVLLKSSAIEVIMLRSNESFTMDDMSWTCGNQDYKYRVSDVTKAGHSLELIEPLIKFQVGLKKLNLHEEEHVLLMAICIVSPDRPGVQDAALIEAIQDRLSNTLQTYIRCRHPPPGSHLLYAKMIQKLADLRSLNEEHSKQYRCLSFQPECSMKLTPLVLEVFGNEIS
For B1, the binding result was “binds”.
